Among all 320,000 compounds or so, about 2,100 (0.66%) were called active. Inconclusive means that the source gave no clear call. Such entries were picked first, then a sample of the others. The call rests on the fitted dose curve; in most records, active means well fitted inhibition curve with a large enough effect in the signal ratio, with a control signal flat (not every such curve was filed as active); inconclusive means small, poorly fitted or top-dose-only effect, or effect the other way, or a change in a side signal; inactive means flat fitted curve, though single readings scatter; the % refers to the signal ratio. A potency beside an inconclusive call is a rough fit, not a confirmed value.
Experiment: qHTS Assay for Lipid Storage Modulators in Drosophila S3 Cells
Settings: BODIPY lipid droplet fluorescence, 18-24 h, cells fed with added oleic acid; lipid storage change, negative = inhibition: at 46.1 µM (top of the series) unless noted
In short: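 Drosophila S3 cells loaded with oleic acid (400 uM, as added) and compounds at several concentrations; lipid droplets imaged by 488-nm laser-scanning cytometry, 500–530 nm intensity and object ratio to cell channel. Percent activity normalized to 20 uM Triacsin C.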
On the % scale 0 is the no-effect control and ±100 the full control effect; potency means the concentration at half of the fitted maximal effect.

Lipid storage change, negative = inhibition, inconclusive:
CC1CCc2sc(C(=O)N3CCC(C(N)=O)CC3)cc2C1 (configuration not stated) -2.41%
Cc1ccc(NC(=O)C2CCCN2S(=O)(=O)c2ccc3c(c2)CCC(=O)N3)cc1Cl (configuration not stated) 53%
O=C(NCc1ccc(Cl)s1)c1cc(COc2c(F)cccc2F)on1 25.3%
COc1ccc(NC(=O)CCSc2ccc3ccccc3n2)cc1 3.01%
O=c1c2ccccc2[nH]c(=S)n1Cc1ccccc1Cl 55.5%
Cc1cccnc1Sc1c([N+](=O)[O-])ncn1C -10.3%
Cc1sc2nc(SCC(=O)NCCO)n(-c3ccccc3)c(=O)c2c1C 1.14%
Cc1cc(C)c2nc3nc(C)c(C)cc3c(N)c2c1 -5.46%
CCOC(=O)c1ccc(NC(=O)CSc2nncn2-c2cccnc2)cc1 107%
O=C(Nc1ccc(F)cc1)C1CCCN(S(=O)(=O)c2cccc3cccnc23)C1 (configuration not stated) 51.8%
C1=C[C@@H]2CCN(Cc3ccccc3)Cc3cccc(c32)C1 -23.7%
C#CCn1c(=NC(=O)c2ccc(Br)s2)sc2cccc(OC)c21 21.8%
CN(CCOc1cccc2ccccc12)Cc1ccccc1 65.2%
CN(C)c1cc[n+](CC(=O)Nc2cccc([N+](=O)[O-])c2)cc1 19.1%
COc1cc(C(=O)Nc2cccc(S(=O)(=O)N3CCCC3)c2)cc(OC)c1C -13.9%
CCC(C)(C)n1nnnc1CN(Cc1ccco1)Cc1cc2cc3c(cc2[nH]c1=O)OCO3 51.8%
CC(Nc1c([N+](=O)[O-])c(=O)oc2ccccc12)C(Cl)c1ccccc1 (configuration not stated) -3.95%
CC(=O)c1ccc(N2CCN(C(=O)c3nn(Cc4ccccc4)c(=O)c4ccccc34)CC2)cc1 -13.8%
COc1ccc(CCN2CCCC(CN(C)Cc3cc(OC)ccc3OC)C2)cc1 (configuration not stated) 19.8%
Clc1cccc(N/N=C/c2ccncc2)c1 26.9%
Cc1ccc(NC(=O)CCNC(=O)c2ccc([N+](=O)[O-])cc2)cc1S(=O)(=O)N1CCOCC1 -9.69%
Cc1cc(=O)oc2cc(OCC(=O)NCCc3ccccc3)ccc12 -23.8%
CN(CC(=O)Nc1ccc(F)c(F)c1F)C(=O)CN1C(=O)NC2(CCCC2)C1=O
CCCCN(C(=O)CC1CCCC1)c1c(N)n(CCCC)c(=O)[nH]c1=O -35.9%
Cc1nnc(N2CCOCC2)c2nn(-c3ccccc3)c(C)c12 -1.51%
N#Cc1cc2c(nc1S(=O)(=O)Cc1ccccc1)CCCC2 7.42%
COc1ccccc1NC(=O)Cn1nnc(-c2ccccc2NC(=O)c2cc3ccccc3oc2=O)n1 -0.304%
COc1cccc(CN2CC(C(=O)NCCCc3ccncc3)CCC2=O)c1 (configuration not stated) 17.9%
O=C(Cc1nn[nH]n1)NCCC1=CCCCC1 -89%
C=CCNC(=S)N1CCN(Cc2ccccc2)CC1 38.5%
O=C(NCc1ccco1)c1ccccc1-c1nc(-c2ccccc2)no1 33.2%
Cc1c(C(=O)Nc2ccc(F)cc2)oc2ccc(S(=O)(=O)N3CCCC3)cc12 33.5%
C=CCC(C=C)[N+]1(CC(=O)OC)CCCCC1 (configuration not stated) 2.28%
CC(OC(=O)CNC(=O)c1ccccc1F)C(=O)Nc1nc(-c2ccccc2)cs1 (configuration not stated) 25.3%
Fc1ccc(CNCc2ccccc2Cl)cc1 12.9%
CCOC(=O)N1CCC(NC(=O)c2ccc3c(c2)sc2nc(-c4ccccc4)cn23)CC1 -90.6%
COc1ccc(S(=O)(=O)Nc2ccc(N3CCOCC3)nc2)cc1 26.8%
CC(=O)c1c(NCCc2ccccc2)nc(=S)n(-c2ccccc2)c1C -25.8%

Sorted by number of heavy atoms (smallest number first): 3 of the compounds above
Lipid storage change, negative = inhibition, inconclusive:
CC1CCc2sc(C(=O)N3CCC(C(N)=O)CC3)cc2C1 (configuration not stated) -2.41%
C#CCn1c(=NC(=O)c2ccc(Br)s2)sc2cccc(OC)c21 21.8%
CCC(C)(C)n1nnnc1CN(Cc1ccco1)Cc1cc2cc3c(cc2[nH]c1=O)OCO3 51.8%

Following part.

Lipid storage change, negative = inhibition, inactive:
CC1CCc2nc(N)c(C#N)c(-c3cccn3C)c2C1 (configuration not stated) 12%

Potency, active:
O=[N+]([O-])/C=C/c1cn(Cc2ccc(F)cc2)c2ccccc12 20.6 µM
O=C(CSc1nnc(-c2ccccc2F)o1)N1CCCC1 23.1 µM

Potency, inconclusive:
COc1ccc(OC)c(CN2CCN(C(=O)CNC(=O)c3cc(C)cc(C)c3)CC2)c1 6.51 µM [activator, single point]
O=C(N/N=C/C(Cl)=C/c1ccccc1)c1ccncc1 6.51 µM [rising, single point]
O=C(CC(=O)N/N=C/c1ccc(F)cc1)N/N=C/c1ccc(F)cc1 2.31 µM [activator, partial curve]
O=C(Nc1nc2ccc(F)cc2s1)C1=NN(c2ccccc2)C(=O)CC1 6.51 µM [activator, single point]
CCOc1ccccc1CN1CCNC(=O)C1CC(=O)NCc1nc(C)cs1 (configuration not stated) 0.92 µM [activator, full curve]
CN(c1ccc(C(=O)Nc2cccc(O)c2)cc1)S(=O)(=O)c1ccccc1 29.1 µM [falling, single point]
COc1ccccc1OCC(=O)Nc1oc(-c2ccccc2)c(-c2ccccc2)c1C#N 20.6 µM [activator, single point]
COc1cccc(C(C)NC(=O)Cc2cccs2)c1 (configuration not stated) 29.1 µM [falling, single point]
CCCC[C@@H]1C[C@H]1[C@@H](NC(=O)c1ccco1)c1ccc(Cl)cc1 16.4 µM [activator, single point]
N#Cc1ccc(OCC(=O)N2CCN(S(=O)(=O)c3cccs3)CC2)cc1 29.1 µM [activator, single point]
CCN(CC)S(=O)(=O)c1ccc(C(=O)Nc2cc3oc4ccccc4c3cc2OC)cc1 0.326 µM [activator, full curve]
